# Source: PubChem BioAssay (EPA / NIEHS)
# Amino acid sequences for entries named in this document (tags omitted). A change or cut given only in a name is not applied to a line headed by its entry.
# UniProt P10276, whole entry, looked up: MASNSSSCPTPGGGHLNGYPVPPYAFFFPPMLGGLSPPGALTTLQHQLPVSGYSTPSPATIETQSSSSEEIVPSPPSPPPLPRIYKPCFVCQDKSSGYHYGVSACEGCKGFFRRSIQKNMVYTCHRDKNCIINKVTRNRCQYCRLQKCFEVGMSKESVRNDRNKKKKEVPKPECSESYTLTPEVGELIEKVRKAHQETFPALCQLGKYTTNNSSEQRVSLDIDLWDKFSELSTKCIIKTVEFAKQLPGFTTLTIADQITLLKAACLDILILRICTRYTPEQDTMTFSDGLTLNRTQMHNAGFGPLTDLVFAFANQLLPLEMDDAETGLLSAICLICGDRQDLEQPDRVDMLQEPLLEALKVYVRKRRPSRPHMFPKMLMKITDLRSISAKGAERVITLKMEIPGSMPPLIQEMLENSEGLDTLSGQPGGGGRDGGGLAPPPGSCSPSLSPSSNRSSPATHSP
# UniProt P19785, whole entry, looked up: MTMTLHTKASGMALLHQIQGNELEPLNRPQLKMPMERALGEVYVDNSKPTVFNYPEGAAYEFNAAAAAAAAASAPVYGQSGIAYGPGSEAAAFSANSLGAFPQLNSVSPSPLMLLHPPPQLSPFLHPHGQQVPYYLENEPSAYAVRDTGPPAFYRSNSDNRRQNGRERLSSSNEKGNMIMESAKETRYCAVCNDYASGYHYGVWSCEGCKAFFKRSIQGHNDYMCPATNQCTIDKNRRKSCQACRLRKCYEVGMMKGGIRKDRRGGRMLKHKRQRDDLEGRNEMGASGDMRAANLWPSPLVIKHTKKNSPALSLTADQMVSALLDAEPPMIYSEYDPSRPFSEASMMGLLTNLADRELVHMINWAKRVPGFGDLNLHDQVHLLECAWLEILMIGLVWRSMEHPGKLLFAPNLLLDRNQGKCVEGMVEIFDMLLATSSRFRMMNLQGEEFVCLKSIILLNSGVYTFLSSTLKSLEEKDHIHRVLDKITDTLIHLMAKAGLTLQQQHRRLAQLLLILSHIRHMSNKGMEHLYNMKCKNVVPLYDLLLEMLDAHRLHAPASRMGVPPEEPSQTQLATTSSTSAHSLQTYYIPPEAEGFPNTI
# UniProt Q98867: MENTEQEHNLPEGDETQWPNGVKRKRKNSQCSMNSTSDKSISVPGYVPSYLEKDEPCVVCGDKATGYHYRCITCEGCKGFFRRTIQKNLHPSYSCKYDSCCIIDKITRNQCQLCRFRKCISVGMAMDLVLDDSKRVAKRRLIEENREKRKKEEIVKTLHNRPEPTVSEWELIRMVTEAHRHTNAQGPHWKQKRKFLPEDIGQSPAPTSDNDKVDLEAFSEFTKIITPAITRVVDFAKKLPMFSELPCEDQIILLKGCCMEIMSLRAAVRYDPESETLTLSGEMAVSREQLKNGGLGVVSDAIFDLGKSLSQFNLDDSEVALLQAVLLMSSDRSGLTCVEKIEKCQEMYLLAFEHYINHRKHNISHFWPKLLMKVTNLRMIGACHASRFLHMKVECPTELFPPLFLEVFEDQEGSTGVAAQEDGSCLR
# UniProt P31749: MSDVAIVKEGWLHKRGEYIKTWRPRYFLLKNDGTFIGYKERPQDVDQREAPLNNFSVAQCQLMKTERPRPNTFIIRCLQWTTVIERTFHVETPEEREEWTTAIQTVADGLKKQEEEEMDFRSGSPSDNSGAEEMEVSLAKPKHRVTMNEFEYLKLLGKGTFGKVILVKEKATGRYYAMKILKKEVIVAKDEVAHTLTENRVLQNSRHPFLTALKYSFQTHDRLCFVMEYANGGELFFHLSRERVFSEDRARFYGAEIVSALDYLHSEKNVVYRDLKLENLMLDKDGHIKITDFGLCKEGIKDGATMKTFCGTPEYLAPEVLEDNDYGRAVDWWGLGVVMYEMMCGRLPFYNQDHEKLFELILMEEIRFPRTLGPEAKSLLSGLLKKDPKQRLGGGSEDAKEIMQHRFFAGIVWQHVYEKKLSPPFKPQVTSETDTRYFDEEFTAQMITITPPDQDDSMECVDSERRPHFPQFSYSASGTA
# UniProt P20813: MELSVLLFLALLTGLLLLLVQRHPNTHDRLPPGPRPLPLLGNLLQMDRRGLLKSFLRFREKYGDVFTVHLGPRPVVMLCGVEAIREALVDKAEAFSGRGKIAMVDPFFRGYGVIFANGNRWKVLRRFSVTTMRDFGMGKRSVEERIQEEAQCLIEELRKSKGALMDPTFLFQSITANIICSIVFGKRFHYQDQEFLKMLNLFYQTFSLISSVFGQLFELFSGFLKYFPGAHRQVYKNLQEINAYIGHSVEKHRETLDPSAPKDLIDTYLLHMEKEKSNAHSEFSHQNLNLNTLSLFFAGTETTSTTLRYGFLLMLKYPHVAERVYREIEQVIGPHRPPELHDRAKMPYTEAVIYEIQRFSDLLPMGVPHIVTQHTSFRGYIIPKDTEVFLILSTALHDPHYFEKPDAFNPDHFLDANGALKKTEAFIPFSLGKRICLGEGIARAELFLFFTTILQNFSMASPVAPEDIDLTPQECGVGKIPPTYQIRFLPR
# UniProt P04386, whole entry, looked up: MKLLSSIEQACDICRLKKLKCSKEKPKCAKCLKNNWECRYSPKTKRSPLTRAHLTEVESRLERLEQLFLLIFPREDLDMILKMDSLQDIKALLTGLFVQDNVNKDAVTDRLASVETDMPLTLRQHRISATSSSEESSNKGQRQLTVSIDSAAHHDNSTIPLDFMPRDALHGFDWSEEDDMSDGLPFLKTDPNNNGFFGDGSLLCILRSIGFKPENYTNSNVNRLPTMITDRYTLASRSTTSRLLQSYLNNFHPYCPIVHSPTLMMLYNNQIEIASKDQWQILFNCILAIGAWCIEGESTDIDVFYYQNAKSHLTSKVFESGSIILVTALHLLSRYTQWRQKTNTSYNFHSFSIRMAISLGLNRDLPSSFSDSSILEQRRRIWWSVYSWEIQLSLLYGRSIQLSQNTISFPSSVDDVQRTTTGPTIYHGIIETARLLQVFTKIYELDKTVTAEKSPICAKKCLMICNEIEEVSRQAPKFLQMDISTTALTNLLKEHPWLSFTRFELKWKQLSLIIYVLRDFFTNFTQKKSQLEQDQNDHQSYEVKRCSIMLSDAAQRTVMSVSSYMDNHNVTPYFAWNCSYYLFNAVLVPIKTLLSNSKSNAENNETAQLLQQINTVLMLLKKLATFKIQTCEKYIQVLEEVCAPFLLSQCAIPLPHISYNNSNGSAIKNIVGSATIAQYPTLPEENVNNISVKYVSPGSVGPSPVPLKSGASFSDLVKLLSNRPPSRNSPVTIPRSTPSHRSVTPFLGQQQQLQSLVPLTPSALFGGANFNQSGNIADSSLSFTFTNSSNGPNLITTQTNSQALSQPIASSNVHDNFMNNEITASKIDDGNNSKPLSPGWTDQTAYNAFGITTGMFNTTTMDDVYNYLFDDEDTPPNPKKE
# UniProt P10827: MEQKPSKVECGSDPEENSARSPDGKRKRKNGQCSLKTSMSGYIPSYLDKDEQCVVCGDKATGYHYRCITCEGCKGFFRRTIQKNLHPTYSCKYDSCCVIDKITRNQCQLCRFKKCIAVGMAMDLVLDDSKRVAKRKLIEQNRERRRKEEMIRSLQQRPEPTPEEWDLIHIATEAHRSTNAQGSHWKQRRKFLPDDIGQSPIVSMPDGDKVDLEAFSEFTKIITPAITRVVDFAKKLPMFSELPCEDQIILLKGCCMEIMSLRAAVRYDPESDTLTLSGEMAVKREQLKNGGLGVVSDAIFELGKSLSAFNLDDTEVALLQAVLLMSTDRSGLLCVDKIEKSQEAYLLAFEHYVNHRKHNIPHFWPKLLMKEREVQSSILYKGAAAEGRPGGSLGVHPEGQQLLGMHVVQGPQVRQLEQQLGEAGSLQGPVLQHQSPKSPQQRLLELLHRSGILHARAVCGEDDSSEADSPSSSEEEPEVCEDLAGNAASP
# UniProt P08219: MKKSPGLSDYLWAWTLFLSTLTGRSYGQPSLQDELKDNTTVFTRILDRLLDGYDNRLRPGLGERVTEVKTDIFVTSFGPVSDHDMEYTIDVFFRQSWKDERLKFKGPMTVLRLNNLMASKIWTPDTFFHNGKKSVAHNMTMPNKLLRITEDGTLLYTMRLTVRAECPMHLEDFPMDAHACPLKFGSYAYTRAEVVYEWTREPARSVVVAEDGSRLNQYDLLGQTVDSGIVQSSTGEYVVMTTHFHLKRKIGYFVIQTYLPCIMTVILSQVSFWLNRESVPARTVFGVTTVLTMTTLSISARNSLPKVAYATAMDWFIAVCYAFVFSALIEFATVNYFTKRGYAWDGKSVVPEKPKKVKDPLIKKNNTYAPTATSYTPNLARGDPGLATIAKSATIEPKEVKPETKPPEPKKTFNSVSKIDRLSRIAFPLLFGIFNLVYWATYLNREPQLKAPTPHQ
# UniProt Q07869: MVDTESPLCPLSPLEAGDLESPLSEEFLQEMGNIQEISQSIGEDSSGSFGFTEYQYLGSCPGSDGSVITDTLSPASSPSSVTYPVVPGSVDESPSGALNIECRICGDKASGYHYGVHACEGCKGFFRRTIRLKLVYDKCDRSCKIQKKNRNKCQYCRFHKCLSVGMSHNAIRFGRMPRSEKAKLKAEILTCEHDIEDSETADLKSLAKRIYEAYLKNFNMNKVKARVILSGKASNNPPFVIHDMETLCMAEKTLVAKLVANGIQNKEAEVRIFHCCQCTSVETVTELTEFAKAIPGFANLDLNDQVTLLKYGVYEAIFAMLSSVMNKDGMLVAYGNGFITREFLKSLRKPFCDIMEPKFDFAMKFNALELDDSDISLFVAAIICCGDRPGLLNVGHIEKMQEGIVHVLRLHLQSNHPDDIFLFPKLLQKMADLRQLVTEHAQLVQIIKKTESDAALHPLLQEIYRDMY
# UniProt P30536, whole entry, looked up: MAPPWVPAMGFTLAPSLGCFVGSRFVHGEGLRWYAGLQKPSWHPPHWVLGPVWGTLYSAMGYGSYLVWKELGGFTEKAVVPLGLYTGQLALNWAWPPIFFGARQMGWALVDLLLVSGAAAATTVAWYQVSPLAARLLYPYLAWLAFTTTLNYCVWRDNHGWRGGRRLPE
# UniProt P03372, whole entry, looked up: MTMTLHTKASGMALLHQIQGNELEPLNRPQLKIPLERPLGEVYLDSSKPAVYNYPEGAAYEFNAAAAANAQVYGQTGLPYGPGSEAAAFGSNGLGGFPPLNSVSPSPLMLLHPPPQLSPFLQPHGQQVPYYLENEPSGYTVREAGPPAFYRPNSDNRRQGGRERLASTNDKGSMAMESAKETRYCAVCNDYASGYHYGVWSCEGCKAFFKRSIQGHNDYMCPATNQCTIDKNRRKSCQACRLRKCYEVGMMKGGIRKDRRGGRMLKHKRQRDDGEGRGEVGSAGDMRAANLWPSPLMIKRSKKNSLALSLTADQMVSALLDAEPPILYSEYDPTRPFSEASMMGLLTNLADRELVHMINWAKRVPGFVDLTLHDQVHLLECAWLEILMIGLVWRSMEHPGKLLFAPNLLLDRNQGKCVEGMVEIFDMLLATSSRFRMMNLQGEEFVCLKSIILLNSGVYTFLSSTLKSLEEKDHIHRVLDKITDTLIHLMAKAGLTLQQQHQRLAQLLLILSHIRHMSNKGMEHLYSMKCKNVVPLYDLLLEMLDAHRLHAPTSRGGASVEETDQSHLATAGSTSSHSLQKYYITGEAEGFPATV
# UniProt P10275: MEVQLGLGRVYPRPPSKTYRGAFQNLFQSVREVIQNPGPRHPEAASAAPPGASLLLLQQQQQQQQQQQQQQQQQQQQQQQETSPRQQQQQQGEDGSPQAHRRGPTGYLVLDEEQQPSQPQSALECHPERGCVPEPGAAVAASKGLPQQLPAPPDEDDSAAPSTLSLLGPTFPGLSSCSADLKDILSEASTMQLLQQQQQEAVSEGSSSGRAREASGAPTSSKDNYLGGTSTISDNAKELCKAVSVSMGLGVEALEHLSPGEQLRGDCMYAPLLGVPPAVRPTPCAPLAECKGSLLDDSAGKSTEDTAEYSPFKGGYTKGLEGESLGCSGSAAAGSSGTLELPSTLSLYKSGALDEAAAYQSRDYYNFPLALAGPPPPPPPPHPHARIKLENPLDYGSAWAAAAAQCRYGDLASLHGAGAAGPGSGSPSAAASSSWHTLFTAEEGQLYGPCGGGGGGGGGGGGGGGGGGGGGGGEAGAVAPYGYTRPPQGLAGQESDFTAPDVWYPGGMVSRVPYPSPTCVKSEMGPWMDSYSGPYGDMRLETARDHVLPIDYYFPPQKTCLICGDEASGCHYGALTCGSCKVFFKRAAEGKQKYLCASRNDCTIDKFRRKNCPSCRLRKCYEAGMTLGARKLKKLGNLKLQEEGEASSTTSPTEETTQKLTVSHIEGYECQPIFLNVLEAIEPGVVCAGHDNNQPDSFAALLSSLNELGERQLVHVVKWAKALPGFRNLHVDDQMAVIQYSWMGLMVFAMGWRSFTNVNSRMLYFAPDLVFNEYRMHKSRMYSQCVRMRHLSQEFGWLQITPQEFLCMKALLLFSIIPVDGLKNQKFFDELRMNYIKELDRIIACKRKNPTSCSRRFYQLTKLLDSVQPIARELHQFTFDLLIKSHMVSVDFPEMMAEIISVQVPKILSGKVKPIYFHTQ
# Several values for one entry are separate records, joined by “and”; a condition that tells them apart may be missing. Equal values may be shown once. Inconclusive results, whose numbers are uncertain, are shown with a selection of clear calls. For some of these results: A potency beside an inconclusive call is a rough fit, not a confirmed value. Activity calls are given as the source filed them. Rule for the calls: active = hit-call score of the fitted dose curve at least 0.9, where 1 is the maximum; inconclusive = response in the unintended direction; inactive = score below 0.9.
# Assays:
# [1] = molecular target: Retinoic acid receptor alpha (Homo sapiens) (UniProt P10276); experiment: NVS_NR_hRAR_Antagonist: NovaScreen (NVS) Nuclear Receptor Binding Assay for human Retinoic Acid Alpha Receptor Antagonism (RAR) (AID 2283358)
# Method in brief: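 TR-FRET, cell-free, antagonist format; 2 h incubation after dosing; DMSO = baseline; signal loss fitted; 25 uM duplicate primary, then conc. series.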
# [2] = molecular target: mouse Estrogen Receptor alpha (Era), Esr1 (gene 13982) (UniProt P19785); experiment: NVS_NR_mERa: NovaScreen (NVS) Nuclear Receptor Binding Assay for mouse Estrogen Receptor alpha (Era) (AID 2283378);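 note: hit means loss of bound radioligand signal relative to DMSO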
# Method in brief: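 Measurements come from scintillation counting after filtration, taken 18 hours after chemicals were added to a cell-free mouse Era preparation with radioligand. Screening was duplicate at 25 uM, with concurrent positive and negative controls and confirmatory concentration series for actives.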
# [3] = molecular target: zebrafish Thyroid Hormone Receptor alpha (TRa), thraa (gene 30670) (UniProt Q98867); experiment: ATG_zfTRa_XSP2: Attagene TRANS-FACTORIAL Multi-Species (XSP1) HepG2 Assay for zebrafish Thyroid Hormone Receptor alpha (TRa) (AID 2283832);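 note: actives raise zebrafish TRa-Gal4 reporter transcript above DMSO baseline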
# Method in brief: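 Transient transfection of human HepG2 with GAL4-UAS reporter units, then 24 h chemical treatment. RNA isolated, reverse-transcribed, PCR-amplified, FAM-labelled, HpaI-digested and run on capillary electrophoresis. Gain-of-signal relative to DMSO.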
# [4] = molecular target: human AKT serine/threonine Kinase 1 (AKT1), AKT1 (gene 207) (UniProt P31749); experiment: NVS_ENZ_hAKT1: NovaScreen (NVS) Enzymatic Assay for human AKT serine/threonine Kinase 1 (AKT1) (AID 2283138)
# Method in brief: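 Recombinant AKT1, specific substrate, cell-free; 1 h; fluorescence intensity/electrophoretic mobility shift. Duplicate single-point 25 uM, then singleton CRC max 50 uM. DMSO = negative control/baseline; signal loss = inhibition.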
# [5] = Tanguay_ZF_120hpf_SNOU_legacy: (Legacy) Oregon State University Tanguay Lab 120 Hour Post-fertilization zebrafish Assay for Snout Malformation (AID 2283637)
# Method in brief: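 Snout malformation read as a yes/no call on brightfield images of 120 hpf larvae (Tropical 5D strain). Static exposure began at 6 hpf on dechorionated embryos in 0.64% DMSO, with gain of signal analysed versus DMSO controls.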
# [6] = read-out: Cytochrome P450 2B6 (Homo sapiens) (UniProt P20813); experiment: CLD_CYP2B6_24hr: CellzDirect (CLD) Gene Expression Assay for xenobiotic metabolism (CYP2B6) at 24 hours (AID 2283686)
# Method in brief: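 Primary human hepatocytes dosed daily for two days with fresh solutions, harvested at 24 hours; mRNA induction quantified by qNPA chemiluminescence, gain of signal vs 0.2% DMSO vehicle. Cytotoxicity annotated from phase-contrast morphology.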
# [7] = system: turtle Androgen Receptor (AR), gene 101947425; experiment: ATG_trAR_XSP1: Attagene TRANS-FACTORIAL Multi-Species (XSP1) HepG2 Assay for turtle Androgen Receptor (AR) (AID 2283786)
# Method in brief: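 HepG2 cells transiently transfected with a turtle AR–GAL4 chimera and GAL4-UAS reporter, co-treated with 3 nM 6-alpha-fluorotestosterone for partial stimulation. Reporter mRNA is quantified at 24 h by RT-PCR and capillary electrophoresis, gain-of-signal versus DMSO.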
# [8] = molecular target: GAL4 Transcription Factor (Internal Marker), GAL4 (gene 855828) (UniProt P04386); experiment: ATG_GAL4_XSP1: Attagene TRANS-FACTORIAL Multi-Species (XSP1) HepG2 Assay for GAL4 Transcription Factor (Internal Marker) (AID 2283789)
# Method in brief: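 HepG2 cells transiently transfected with multiplexed GAL4-UAS reporter units were exposed for 24 h with 3 nM 6-alpha-fluorotestosterone present. Reporter mRNA was quantified by RT-PCR, FAM labelling, HpaI digestion and capillary electrophoresis; background-control readout, gain-of-signal versus DMSO.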
# [9] = molecular target: human Thyroid hormone Receptor alpha (TRa), THRA (gene 7067) (UniProt P10827); experiment: ATG_hTRa_XSP1: Attagene TRANS-FACTORIAL Multi-Species (XSP1) HepG2 Assay for human Thyroid hormone Receptor alpha (TRa) (AID 2283805)
# Method in brief: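 HepG2 cells transiently transfected with GAL4-UAS reporter units expressing chimeric NR-Gal4 proteins, dosed 24 hours with 3 nM 6-alpha-fluorotestosterone present. Reporter mRNA measured by RT-PCR and capillary electrophoresis; gain of signal fitted versus DMSO.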
# [10] = molecular target: bovine Gamma-Aminobutyric Acid Type A Receptor Agonist (GABAR Agonist), GABRA1 (gene 780973) (UniProt P08219); experiment: NVS_LGIC_bGABAR_Agonist: NovaScreen (NVS) Ligand-Gated Ion Channel Assay for bovine Gamma-Aminobutyric Acid Type A Receptor Agonist (GABAR Agonist) (AID 2283338)
# Method in brief: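 Radioligand binding to bovine cerebellar membranes in agonist format, read by filter-based scintillation counting after 1 h. Primary screen in duplicate at 25 uM, with actives followed in concentration series. Gain of signal versus DMSO.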
# [11] = Tanguay_ZF_120hpf_JAW_legacy: (Legacy) Oregon State University Tanguay Lab 120 Hour Post-fertilization zebrafish Assay for Jaw Malformation (AID 2283638);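 note: active means more embryos with jaw malformation than DMSO controls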
# Method in brief: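 Wild-type 5D embryos, chorion removed at 4 hpf, dosed singly from 6 hpf; 28C static, sealed, foil-covered, to 120 hpf. Endpoint: jaw defect yes/no (brightfield); mortality excludes scoring.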
# [12] = CCTE_Shafer_MEA_acute_LDH: CCTE's Lactate Dehydrogenase Assay for Cytotoxicity in the Neural Acute Assay, Shafer Lab (AID 2284086);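 note: active means LDH release rises above DMSO vehicle level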
# Method in brief: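 Rat cortical neurons cultured on microelectrode arrays; baseline 40-min recording, compound added, second 40-min recording; medium then sampled for released LDH (colorimetric kit, 490 nm). DMSO = negative control.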
# [13] = read-out: alkyl and aryl transferase (GSTA2), GSTA2 (gene 2939); experiment: CLD_GSTA2_6hr: CellzDirect (CLD) Gene Expression Assay for alkyl and aryl transferase (GSTA2) at 6 hours (AID 2283666)
# Method in brief: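 Primary human hepatocytes from two donor preparations were dosed daily with fresh compound at multiple concentrations, 0.2% DMSO vehicle. GSTA2 mRNA was measured at 6 hours by qNPA chemiluminescence; induction fitted relative to DMSO, with cytotoxicity flagged morphologically.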
# [14] = CCTE_Simmons_CellTiterGLO_HEK293T: Viability Assessment in CCTE's Assays for Thyroperoxidase (TPO) Inhibition, Simmons Lab (AID 2283665)
# Method in brief: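 HEK293T, 10 000 cells/well, DMEM + 1% FBS; 8-pt titration 5 nM–87.5 uM [final], 0.5% DMSO; 24 hr, 37C, 5% CO2; CellTiter-Glo luminescence; n=3 biological replicates.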
# [15] = molecular target: human Peroxisome Proliferator-activated Receptor alpha (PPARa), PPARA (gene 5465) (UniProt Q07869); experiment: NVS_NR_hPPARa: NovaScreen (NVS) Nuclear Receptor Binding Assay for human Peroxisome Proliferator-activated Receptor alpha (PPARa) (AID 2283359);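 note: activity means loss of TR-FRET signal versus DMSO baseline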
# Method in brief: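 Chemicals were first screened in duplicate at 25 uM, and active ones were retested across concentration series. Binding was monitored by TR-FRET one hour after dosing, with decreased signal against DMSO counted as activity.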
# [16] = CCTE_Mundy_HCI_Cortical_NOG_NeuronCount: CCTE's Neurite Outgrowth Assay in rat cortical cells for Neuron Count, Mundy Lab (AID 2284236);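 note: neurons counted by imaging betaIII-tubulin and Hoechst stained cortical cells; cells exposed to compound for about 48 hours before fixation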
# Method in brief: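 Read-out: neuron number by high-content imaging of betaIII-tubulin (Alexa Fluor-488) and Hoechst-labelled rat primary cortical cells.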
# [17] = read-out: glucuronosyltransferase (UGT1A1), UGT1A1 (gene 54658); experiment: CLD_UGT1A1_24hr: CellzDirect (CLD) Gene Expression Assay for glucuronosyltransferase (UGT1A1) at 24 hours (AID 2283696)
# Method in brief: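 Primary human hepatocytes from two donor preparations were dosed (0.2% DMSO vehicle) and harvested at 24 h; UGT1A1 mRNA induction was quantified by chemiluminescent qNPA, fitted as gain relative to DMSO.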
# [18] = molecular target: human Peripheral-type Benzodiazepine Receptor (PBR), TSPO (gene 706) (UniProt P30536); experiment: NVS_MP_hPBR: NovaScreen (NVS) Membrane Protein Assay for human Peripheral-type Benzodiazepine Receptor (PBR) (AID 2283331);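 note: hits reduce radioligand binding relative to DMSO baseline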
# Method in brief: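 Scintillation counts of filter-bound radioligand served as read-out after 1 h chemical dosing of human colonic membrane preparations. Activity was scored as signal loss against DMSO; initial duplicates at 25 uM, confirmatory concentration series afterward.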
# [19] = molecular target: Estrogen receptor (Homo sapiens) (UniProt P03372); experiment: NVS_NR_hER: NovaScreen (NVS) Nuclear Receptor Binding Assay for human Estrogen Receptor (ER) (AID 2283348)
# Method in brief: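 Scintillation signal from bound radioligand was measured 18 hours after chemical addition to cell-free MCF7 protein extracts, with DMSO as baseline. Activity was scored as signal loss; compounds ran first at 25 uM in duplicate.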
# [20] = molecular target: Ratio of Nucleoli Translocation and Cytoplasm, AR (gene 367) (UniProt P10275); experiment: UPITT_HCI_U2OS_AR_TIF2_Nucleoli_Cytoplasm_Ratio_Agonist: University of Pittsburgh U2OS Androgen Receptor-Transcriptional Intermediary Factor 2 (AR-TIF2) Agonism High Content Imaging Assay for Ratio of Nucleoli Translocation and Cytoplasm (AID 2284000);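 note: hits raise the red nucleolar to cytoplasm ratio above vehicle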
# Method in brief: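 Read-out first: nucleolar-to-cytoplasm ratio of red (AR-RFP) signal, quantified by high-content imaging in U2OS cells co-expressing TIF2-GFP. Activity is scored as signal increase over DMSO. Single-point screening used 20 uM final (0.2% DMSO).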
smiles,measurement,setting,value
CC(C)C1CCC(Cc2ccc(Cl)cc2)C1(O)Cn1cncn1 (stereo not drawn),AC50,[1],inconclusive: 0.22 µM
same,AC50,[2],inconclusive: 1.41 µM
same,AC50,[3],inconclusive: 11.1 µM
same,outcome,[3],inactive
O=c1ccc(=O)[nH][nH]1,AC50,[4],inconclusive: 25 µM
same,AC50,[5],inconclusive: 25.4 µM
same,AC50,[6],inconclusive: 0.644 µM
COCC(C)N(C(=O)CCl)c1c(C)csc1C (stereo not drawn),AC50,[5],active: 8.23 µM
C#CCC1=C(C)C(OC(=O)C2C(C=C(C)C)C2(C)C)CC1=O (stereo not drawn),AC50,[7],inconclusive: 84.6 µM
same,AC50,[8],inconclusive: 165 µM
same,AC50,[9],inconclusive: 100 µM
same,outcome,[3],inactive
CCc1cccc(C)c1N(C(=O)CCl)C(C)COC (stereo not drawn),AC50,[10],inconclusive: 0.799 µM
same,AC50,[11],inconclusive: 76.4 µM
same,AC50,[7],inconclusive: 172 µM
same,AC50,[8],inconclusive: 100 µM
same,AC50,[12],inconclusive: 20 µM
COc1cc(OC)nc(NC(=O)NS(=O)(=O)c2cc(NC=O)ccc2C(=O)N(C)C)n1,AC50,[2],inconclusive: 25 µM
same,AC50,[13],inconclusive: 0.000901 µM
Nc1ccc(Oc2ccc(N)cc2)cc1,outcome,[14],inactive
Cc1cccc(N)c1N,outcome,[15],inactive
CCOP(=S)(OCC)OC(Cl)C(Cl)(Cl)Cl (stereo not drawn),AC50,[13],inconclusive: 20 µM
same,AC50,[16],active: 50 µM and active: 21.7 µM
c1ccc(N=Nc2ccccc2)cc1,AC50,[4],inconclusive: 25 µM
same,AC50,[10],inconclusive: 6.54 µM
same,AC50,[15],inconclusive: 25 µM
CC1=NNC(=O)N(/N=C/c2cccnc2)C1,AC50,[17],inconclusive: 20 µM
N#Cc1c(Cl)cccc1Cl,AC50,[18],inconclusive: 5.86 µM
same,AC50,[19],inconclusive: 25 µM
O=C(NC(=O)c1c(F)cccc1F)Nc1ccc(OC(F)(F)C(F)OC(F)(F)F)c(Cl)c1 (stereo not drawn),AC50,[10],inconclusive: 25 µM
same,outcome,[6],inactive
N#CSCSC#N,outcome,[1],inactive
same,AC50,[11],inconclusive: 1.56 µM
same,AC50,[17],inconclusive: 7.59 µM
same,AC50,[20],inconclusive: 50 µM
COC(=O)Nc1nc2ccccc2[nH]1,AC50,[20],inconclusive: 50 µM
same,AC50,[12],inconclusive: 20 µM
Cc1cc(O)ccc1Cl,outcome,[2],inactive
COCC(=O)N(c1c(C)cccc1C)C(C)C(=O)OC (stereo not drawn),AC50,[19],inconclusive: 43.2 µM
same,AC50,[1],inconclusive: 25 µM
same,outcome,[13],inactive
same,AC50,[6],active: 4.09 µM
same,outcome,[12],inactive

# Reprinted at random: 2 records from the list, in no set order.
smiles,measurement,setting,value
CCc1cccc(C)c1N(C(=O)CCl)C(C)COC (stereo not drawn),AC50,[11],inconclusive: 76.4 µM
COCC(=O)N(c1c(C)cccc1C)C(C)C(=O)OC (stereo not drawn),outcome,[13],inactive
